According to the supplement of paper PMC12595434, “Development of retinoid nuclear receptor pathway antagonists through targeting aldehyde dehydrogenase 1A3” (iScience, 2025):
The list shows a part of the results. Single values of this set are uncertain.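 Tm was set to 64 °C where no melting was found, and many curves are irregular.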

Protein sequences, listed by entry. Tags and fused reporters are not part of them. Lines headed by an entry give the natural chain unless they say otherwise; changes in a name come on top.
UniProt Q9H0E9, whole entry: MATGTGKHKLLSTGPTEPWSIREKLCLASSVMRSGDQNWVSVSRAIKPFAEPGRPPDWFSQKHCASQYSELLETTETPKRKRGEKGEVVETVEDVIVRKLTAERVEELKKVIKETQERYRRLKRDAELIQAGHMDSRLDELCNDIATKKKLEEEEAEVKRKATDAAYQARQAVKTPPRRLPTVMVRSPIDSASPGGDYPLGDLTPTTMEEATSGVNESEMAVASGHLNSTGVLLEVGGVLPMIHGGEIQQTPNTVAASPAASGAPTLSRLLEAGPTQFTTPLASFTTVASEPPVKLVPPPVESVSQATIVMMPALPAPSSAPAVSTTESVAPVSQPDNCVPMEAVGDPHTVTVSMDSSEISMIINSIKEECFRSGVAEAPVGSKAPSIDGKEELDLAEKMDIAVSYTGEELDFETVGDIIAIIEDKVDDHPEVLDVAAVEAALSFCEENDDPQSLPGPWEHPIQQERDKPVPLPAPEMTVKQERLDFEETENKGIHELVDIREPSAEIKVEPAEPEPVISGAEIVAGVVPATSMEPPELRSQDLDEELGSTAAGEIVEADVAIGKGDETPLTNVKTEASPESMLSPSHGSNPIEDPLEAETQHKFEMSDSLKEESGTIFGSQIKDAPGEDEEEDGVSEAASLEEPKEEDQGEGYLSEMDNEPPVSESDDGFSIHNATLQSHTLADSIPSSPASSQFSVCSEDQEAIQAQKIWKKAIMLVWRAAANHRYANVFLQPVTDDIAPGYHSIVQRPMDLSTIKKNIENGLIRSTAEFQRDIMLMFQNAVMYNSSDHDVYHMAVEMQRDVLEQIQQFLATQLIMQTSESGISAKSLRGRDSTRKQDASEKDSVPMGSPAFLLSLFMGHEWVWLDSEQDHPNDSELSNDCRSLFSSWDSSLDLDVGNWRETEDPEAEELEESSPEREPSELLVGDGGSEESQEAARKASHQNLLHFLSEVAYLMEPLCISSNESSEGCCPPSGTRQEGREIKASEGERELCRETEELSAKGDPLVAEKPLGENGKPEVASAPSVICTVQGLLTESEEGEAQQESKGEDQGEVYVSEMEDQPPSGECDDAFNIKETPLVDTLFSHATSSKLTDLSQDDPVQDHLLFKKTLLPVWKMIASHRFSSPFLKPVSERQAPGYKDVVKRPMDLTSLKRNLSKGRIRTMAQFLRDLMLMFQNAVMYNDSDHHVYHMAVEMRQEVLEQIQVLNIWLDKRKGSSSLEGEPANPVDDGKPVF
UniProt Q9H0S4: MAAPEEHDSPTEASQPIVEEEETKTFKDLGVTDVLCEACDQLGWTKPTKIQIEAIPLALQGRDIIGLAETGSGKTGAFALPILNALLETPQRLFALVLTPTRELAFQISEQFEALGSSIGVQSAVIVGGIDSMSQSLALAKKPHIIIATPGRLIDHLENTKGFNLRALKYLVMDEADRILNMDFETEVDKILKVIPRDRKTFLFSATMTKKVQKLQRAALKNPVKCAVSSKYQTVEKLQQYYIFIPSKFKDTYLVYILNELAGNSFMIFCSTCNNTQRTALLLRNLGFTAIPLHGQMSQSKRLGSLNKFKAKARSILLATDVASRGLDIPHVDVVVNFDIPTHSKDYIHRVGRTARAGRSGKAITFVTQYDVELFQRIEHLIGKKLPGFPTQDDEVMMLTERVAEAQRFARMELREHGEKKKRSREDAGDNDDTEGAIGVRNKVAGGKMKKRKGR
UniProt Q9H2H8: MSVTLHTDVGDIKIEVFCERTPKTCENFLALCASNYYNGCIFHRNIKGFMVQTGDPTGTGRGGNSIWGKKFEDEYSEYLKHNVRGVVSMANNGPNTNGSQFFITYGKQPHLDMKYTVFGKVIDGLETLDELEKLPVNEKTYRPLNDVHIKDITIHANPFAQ
UniProt Q9H082: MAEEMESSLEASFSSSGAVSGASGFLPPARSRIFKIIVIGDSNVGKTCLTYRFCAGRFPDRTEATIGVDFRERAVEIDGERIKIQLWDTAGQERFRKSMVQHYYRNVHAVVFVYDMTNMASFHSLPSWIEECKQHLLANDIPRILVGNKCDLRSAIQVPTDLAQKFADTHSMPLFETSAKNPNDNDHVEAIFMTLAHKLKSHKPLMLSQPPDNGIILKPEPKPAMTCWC
UniProt Q9H2P9: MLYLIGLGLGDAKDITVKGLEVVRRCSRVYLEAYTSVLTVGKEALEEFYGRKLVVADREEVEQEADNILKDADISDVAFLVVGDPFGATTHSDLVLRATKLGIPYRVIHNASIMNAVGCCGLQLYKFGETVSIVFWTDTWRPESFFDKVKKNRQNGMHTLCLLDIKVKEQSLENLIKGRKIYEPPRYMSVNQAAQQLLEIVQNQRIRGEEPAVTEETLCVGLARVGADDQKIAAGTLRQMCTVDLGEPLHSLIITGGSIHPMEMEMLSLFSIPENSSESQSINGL
UniProt Q9H0B6: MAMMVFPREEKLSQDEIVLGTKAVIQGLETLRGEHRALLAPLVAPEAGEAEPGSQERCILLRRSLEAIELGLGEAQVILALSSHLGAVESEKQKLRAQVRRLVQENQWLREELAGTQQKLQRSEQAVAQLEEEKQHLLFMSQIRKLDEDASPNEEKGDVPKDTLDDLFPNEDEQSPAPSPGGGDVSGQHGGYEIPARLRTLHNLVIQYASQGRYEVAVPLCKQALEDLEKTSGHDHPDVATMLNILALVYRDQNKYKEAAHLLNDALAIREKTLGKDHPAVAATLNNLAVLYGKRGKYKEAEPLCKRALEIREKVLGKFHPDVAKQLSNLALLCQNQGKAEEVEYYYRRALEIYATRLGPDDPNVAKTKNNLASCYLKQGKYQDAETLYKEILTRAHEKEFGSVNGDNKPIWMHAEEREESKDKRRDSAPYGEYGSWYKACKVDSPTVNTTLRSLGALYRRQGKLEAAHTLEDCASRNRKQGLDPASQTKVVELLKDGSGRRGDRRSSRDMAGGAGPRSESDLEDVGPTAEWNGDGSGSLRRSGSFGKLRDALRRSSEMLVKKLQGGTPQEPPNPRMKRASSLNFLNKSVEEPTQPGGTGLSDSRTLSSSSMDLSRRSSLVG
UniProt Q9H467: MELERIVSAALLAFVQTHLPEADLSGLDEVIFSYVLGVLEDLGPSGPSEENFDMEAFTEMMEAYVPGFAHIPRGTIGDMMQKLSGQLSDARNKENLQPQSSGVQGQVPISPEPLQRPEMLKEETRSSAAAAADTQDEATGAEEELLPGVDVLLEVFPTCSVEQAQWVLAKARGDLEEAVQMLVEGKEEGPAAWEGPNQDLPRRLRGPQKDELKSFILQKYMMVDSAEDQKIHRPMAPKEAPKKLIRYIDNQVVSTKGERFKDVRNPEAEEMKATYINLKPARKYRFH
UniProt Q9GZT6: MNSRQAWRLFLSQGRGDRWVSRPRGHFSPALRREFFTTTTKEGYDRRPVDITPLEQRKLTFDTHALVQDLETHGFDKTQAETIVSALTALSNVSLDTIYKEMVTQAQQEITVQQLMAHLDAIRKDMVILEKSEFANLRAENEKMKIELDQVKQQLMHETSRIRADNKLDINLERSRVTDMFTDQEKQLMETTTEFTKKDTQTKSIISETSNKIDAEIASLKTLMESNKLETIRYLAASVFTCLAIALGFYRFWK
UniProt Q9H7P6: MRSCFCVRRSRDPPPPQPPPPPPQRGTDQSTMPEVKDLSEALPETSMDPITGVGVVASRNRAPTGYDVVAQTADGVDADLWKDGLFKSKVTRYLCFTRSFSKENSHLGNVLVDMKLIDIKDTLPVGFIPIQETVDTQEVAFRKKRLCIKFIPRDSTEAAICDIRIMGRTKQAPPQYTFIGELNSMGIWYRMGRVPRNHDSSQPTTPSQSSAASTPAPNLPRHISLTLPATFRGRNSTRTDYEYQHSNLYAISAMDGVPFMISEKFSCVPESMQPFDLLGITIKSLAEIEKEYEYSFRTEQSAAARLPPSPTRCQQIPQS
UniProt Q9C086, whole entry: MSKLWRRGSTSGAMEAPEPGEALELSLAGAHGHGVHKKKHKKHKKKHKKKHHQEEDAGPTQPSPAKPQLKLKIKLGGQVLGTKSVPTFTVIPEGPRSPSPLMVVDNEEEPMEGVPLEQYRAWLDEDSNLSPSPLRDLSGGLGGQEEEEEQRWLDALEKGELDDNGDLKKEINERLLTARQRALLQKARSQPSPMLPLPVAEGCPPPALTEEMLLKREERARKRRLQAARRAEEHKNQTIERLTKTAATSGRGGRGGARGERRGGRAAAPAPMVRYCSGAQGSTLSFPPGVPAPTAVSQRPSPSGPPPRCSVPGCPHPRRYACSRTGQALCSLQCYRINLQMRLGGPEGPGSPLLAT
UniProt Q9H425: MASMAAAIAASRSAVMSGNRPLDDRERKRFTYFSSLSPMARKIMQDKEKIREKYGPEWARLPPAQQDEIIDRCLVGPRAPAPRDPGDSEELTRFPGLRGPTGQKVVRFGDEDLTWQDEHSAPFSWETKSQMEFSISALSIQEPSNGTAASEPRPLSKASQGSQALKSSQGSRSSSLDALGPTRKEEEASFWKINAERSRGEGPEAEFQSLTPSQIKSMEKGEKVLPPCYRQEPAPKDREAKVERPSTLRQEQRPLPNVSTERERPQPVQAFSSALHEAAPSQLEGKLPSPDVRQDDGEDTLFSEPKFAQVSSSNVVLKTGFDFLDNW
UniProt Q9H4B0: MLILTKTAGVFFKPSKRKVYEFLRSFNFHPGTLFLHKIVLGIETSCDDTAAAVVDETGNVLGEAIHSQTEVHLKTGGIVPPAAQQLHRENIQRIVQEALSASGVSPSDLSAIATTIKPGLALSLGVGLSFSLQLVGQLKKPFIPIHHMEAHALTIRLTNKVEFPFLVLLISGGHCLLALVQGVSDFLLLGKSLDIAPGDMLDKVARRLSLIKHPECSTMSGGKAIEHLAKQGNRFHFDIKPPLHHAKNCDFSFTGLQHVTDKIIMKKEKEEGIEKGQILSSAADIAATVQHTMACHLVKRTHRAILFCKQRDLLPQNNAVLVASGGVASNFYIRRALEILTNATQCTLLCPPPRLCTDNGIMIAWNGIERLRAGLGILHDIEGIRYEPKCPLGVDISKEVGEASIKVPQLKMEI
UniProt Q9H5H4: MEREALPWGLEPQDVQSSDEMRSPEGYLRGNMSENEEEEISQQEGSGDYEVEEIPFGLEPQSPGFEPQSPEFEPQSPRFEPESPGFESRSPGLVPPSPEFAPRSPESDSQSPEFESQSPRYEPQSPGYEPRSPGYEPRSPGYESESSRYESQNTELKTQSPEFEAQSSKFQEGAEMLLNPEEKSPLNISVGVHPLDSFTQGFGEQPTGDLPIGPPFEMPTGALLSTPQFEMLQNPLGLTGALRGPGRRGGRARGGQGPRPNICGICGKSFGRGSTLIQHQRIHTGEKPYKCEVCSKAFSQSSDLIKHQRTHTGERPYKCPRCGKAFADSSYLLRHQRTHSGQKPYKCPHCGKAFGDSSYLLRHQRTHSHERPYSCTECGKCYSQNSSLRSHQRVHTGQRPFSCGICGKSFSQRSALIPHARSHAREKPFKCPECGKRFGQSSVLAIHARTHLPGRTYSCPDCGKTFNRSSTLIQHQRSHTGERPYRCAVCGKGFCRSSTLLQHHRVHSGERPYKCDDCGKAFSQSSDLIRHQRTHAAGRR
UniProt Q9GZN1, whole entry: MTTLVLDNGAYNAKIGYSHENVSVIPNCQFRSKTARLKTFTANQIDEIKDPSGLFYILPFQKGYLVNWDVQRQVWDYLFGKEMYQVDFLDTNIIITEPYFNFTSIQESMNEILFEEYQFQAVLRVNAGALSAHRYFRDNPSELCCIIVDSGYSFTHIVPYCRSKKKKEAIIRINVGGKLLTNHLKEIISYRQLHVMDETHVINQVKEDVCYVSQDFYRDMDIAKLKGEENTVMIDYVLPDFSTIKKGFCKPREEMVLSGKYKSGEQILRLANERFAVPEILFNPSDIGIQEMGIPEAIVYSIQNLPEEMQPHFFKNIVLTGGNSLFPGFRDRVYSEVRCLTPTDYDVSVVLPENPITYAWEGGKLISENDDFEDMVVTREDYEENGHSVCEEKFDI
UniProt Q9BYV8: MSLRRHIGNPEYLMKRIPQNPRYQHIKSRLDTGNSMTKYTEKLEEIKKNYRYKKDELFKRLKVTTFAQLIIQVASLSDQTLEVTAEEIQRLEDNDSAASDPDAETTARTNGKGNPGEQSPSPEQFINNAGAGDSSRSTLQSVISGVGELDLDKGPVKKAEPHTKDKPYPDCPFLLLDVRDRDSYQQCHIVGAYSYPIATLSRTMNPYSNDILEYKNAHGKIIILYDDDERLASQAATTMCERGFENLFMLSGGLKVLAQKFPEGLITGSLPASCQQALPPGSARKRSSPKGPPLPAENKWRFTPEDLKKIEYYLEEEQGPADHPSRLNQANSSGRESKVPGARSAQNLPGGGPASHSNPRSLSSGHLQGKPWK
UniProt Q9H3R5: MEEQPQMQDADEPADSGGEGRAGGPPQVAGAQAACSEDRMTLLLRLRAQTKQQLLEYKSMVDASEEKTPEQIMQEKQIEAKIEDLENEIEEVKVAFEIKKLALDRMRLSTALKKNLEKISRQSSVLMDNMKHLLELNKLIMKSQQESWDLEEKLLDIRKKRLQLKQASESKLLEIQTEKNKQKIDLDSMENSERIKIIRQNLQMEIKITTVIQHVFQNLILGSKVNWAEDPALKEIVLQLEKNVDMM

Compound: CCc1cnccc1C(=O)Nc1cc2c(cc1F)NC(=O)CC2
Assay: melting temperature shift (DMSO Tm minus MBE1-treated Tm) in cellular thermal proteome profiling; higher = less thermal stabilization by MBE1 (negative = stabilized by MBE1)
Settings: A375

Target	melting temperature shift (MBE1 concentration: 100 nM) [°C]	melting temperature shift (MBE1 concentration: 1 uM) [°C]
UniProt Q9GZX9	-5.61	-7.58
NARFL (UniProt Q9H6Q4)	0.449	0.932
VPS11 (UniProt Q9H270)	-0.725	-1.26
UniProt Q9H6R7	0.806	0.177
FAM96A (UniProt Q9H5X1)	-2.45	-1.17
DSN1 (UniProt Q9H410)	-0.263	0.0188
NO66 (UniProt Q9H6W3)	-1.3	-1.01
BTBD1 (UniProt Q9H0C5)	-1.66	-0.58
XRN2 (UniProt Q9H0D6)	-4.07	-4.89
BLZF1 (UniProt Q9H2G9)	0.684	-0.348
UniProt Q9H4W6	-0.355	0.235
PUS3 (UniProt Q9BZE2)	-0.577	0.401
TANC1 (UniProt Q9C0D5)	-0.0847	0.0376
UniProt Q9BZ95	-1.57	-0.923
BRD8 (UniProt Q9H0E9)	-0.971	-0.244
NELFA (UniProt Q9H3P2)	-0.597	-0.295
UniProt Q9C026	0.0122	0.786
NT5C3A (UniProt Q9H0P0)	1.05	1.12
DDX31 (UniProt Q9H8H2)	-0.269	-0.365
SLC25A32 (UniProt Q9H2D1)	-1.24	-1.28
DDX47 (UniProt Q9H0S4)	1.09	0.922
TMEM206 (UniProt Q9H813)	-0.501	0.22

Target	melting temperature shift (MBE1 concentration: 100 nM) [°C]	melting temperature shift (MBE1 concentration: 1 uM) [°C]
PPIL3 (UniProt Q9H2H8)	-0.189	-0.116
UniProt Q9H6R3	-0.449	-1.4
FAM234A (UniProt Q9H0X4)	-4.32	-2.33
MRPL20 (UniProt Q9BYC9)	0.592	-0.0427
MTMR12 (UniProt Q9C0I1)	-1.32	-0.0488
CSTF2T (UniProt Q9H0L4)	2.49	-0.409
TSPYL1 (UniProt Q9H0U9)	-0.278	-0.378
LMAN2L (UniProt Q9H0V9)	0.771	1.5
ESF1 (UniProt Q9H501)	-0.115	-0.122
RACGAP1 (UniProt Q9H0H5)	-1.54	-0.847
QRSL1 (UniProt Q9H0R6)	-0.715	0.155
TMEM126A (UniProt Q9H061)	-0.637	-1.36
EHD4 (UniProt Q9H223)	0.299	0.0916
TRIOBP (UniProt Q9H2D6)	-1.29	-1.52
ZYG11B (UniProt Q9C0D3)	0.183	0.556
UniProt Q9H0R3	-2.15	-3.29
ACBD3 (UniProt Q9H3P7)	0.0427	-0.488
RAB33B (UniProt Q9H082)	-1.07	-2.52
OSBPL5 (UniProt Q9H0X9)	-0.476	4.1
GOLPH3L (UniProt Q9H4A5)	-0.979	-0.362
UniProt Q9H116	-0.765	2.63
NSRP1 (UniProt Q9H0G5)	-1.31	-1.31

Target	melting temperature shift (MBE1 concentration: 100 nM) [°C]	melting temperature shift (MBE1 concentration: 1 uM) [°C]
DPH5 (UniProt Q9H2P9)	-0.281	1.28
MRPS26 (UniProt Q9BYN8)	-0.243	0.179
UNK (UniProt Q9C0B0)	1.07	0.476
PANK2 (UniProt Q9BZ23)	-0.807	0.104
UniProt Q9H0Q0	-0.376	13.4
SPNS1 (UniProt Q9H2V7)	-2.68	-0.0366
PARP12 (UniProt Q9H0J9)	-0.186	-0.429
POLR1E (UniProt Q9GZS1)	-0.448	-0.564
KLC2 (UniProt Q9H0B6)	0.153	-0.195
PUS7L (UniProt Q9H0K6)	0.818	-0.104
EPB41L1 (UniProt Q9H4G0)	-0.57	-0.39
UniProt Q9BZD3	-0.44	-1.18
CUEDC2 (UniProt Q9H467)	-1.21	0.311
UniProt Q9H211	-1.74	-1.29
UniProt Q9H582	-0.315	4.02
MKRN2 (UniProt Q9H000)	0.256	-0.905
CCDC90B (UniProt Q9GZT6)	-2.33	-1.39
UniProt Q9C040	0.342	-0.0183
UPF3B (UniProt Q9BZI7)	-0.53	1.03
UniProt Q9H3G5	-1.77	-0.981
SIL1 (UniProt Q9H173)	-0.891	0.852
PNN (UniProt Q9H307)	-1.55	-0.382

Target	melting temperature shift (MBE1 concentration: 100 nM) [°C]	melting temperature shift (MBE1 concentration: 1 uM) [°C]
PIGU (UniProt Q9H490)	-0.0488	-0.116
UBE2O (UniProt Q9C0C9)	0.592	0.415
FUT8 (UniProt Q9BYC5)	-0.647	0.238
NAA50 (UniProt Q9GZZ1)	-0.537	-0.262
UniProt Q9H7P6	-0.659	-0.647
UniProt Q9C086	-0.551	-0.301
C1ORF198 (UniProt Q9H425)	-2.57	-1.89
UniProt Q9H3L0	0.047	-0.499
OSGEPL1 (UniProt Q9H4B0)	1.81	-0.0183
SLK (UniProt Q9H2G2)	0.641	0.0794
UniProt Q9H0F6	-1.91	-0.747
WDR13 (UniProt Q9H1Z4)	-1.61	1.02
UniProt Q9H0V1	-0.604	0.263
RWDD1 (UniProt Q9H446)	-0.946	-0.832
UniProt Q9H5H4	-3.38	-2.83
CXORF56 (UniProt Q9H5V9)	0.543	-0.0916
UniProt Q9H2J7	-1.96	-0.543
TBL1XR1 (UniProt Q9BZK7)	-1.78	-2.67
UniProt Q9C0C4	-1.32	0.556
SMYD3 (UniProt Q9H7B4)	-0.249	0.818
ACTR6 (UniProt Q9GZN1)	-0.772	-0.616
EDEM3 (UniProt Q9BZQ6)	-0.49	1.03

Target	melting temperature shift (MBE1 concentration: 100 nM) [°C]	melting temperature shift (MBE1 concentration: 1 uM) [°C]
TAOK3 (UniProt Q9H2K8)	-2.29	-0.55
UniProt Q9H7L9	-0.736	-0.296
BCAS3 (UniProt Q9H6U6)	-0.428	0.00611
CEP41 (UniProt Q9BYV8)	-0.612	-0.193
PHAX (UniProt Q9H814)	-0.248	0.287
VPS16 (UniProt Q9H269)	0.221	-0.226
CRNKL1 (UniProt Q9BZJ0)	-0.199	-0.314
NLN (UniProt Q9BYT8)	-0.997	-0.0805
UniProt Q9H6R0	-0.682	-0.706
FTO (UniProt Q9C0B1)	-1.03	0.22
UniProt Q9H5J8	0.787	0.574
UniProt Q9BZG1	-0.966	-0.0469
HEATR1 (UniProt Q9H583)	-0.63	0.0235
UniProt Q9H0Z9	-0.595	-0.657
PCIF1 (UniProt Q9H4Z3)	0.0329	-0.103
POFUT1 (UniProt Q9H488)	-1.61	-0.777
CENPH (UniProt Q9H3R5)	1.76	1.17
TRIM4 (UniProt Q9C037)	1.83	-0.464

Whole records, quoted from the list. Order of values: melting temperature shift (MBE1 concentration: 100 nM) [°C] | melting temperature shift (MBE1 concentration: 1 uM) [°C]
POFUT1 (UniProt Q9H488) is entered as -1.61 | -0.777
UniProt Q9C0C4 is entered as -1.32 | 0.556
ESF1 (UniProt Q9H501) is entered as -0.115 | -0.122
FAM96A (UniProt Q9H5X1) is entered as -2.45 | -1.17
